Reference: PubChem BioAssay AID504444 (National Center for Advancing Translational Sciences (NCATS), 2011)
The campaign covered roughly 360,000 compounds. About 7,500 (2.1%) were called active. Inconclusive results, whose numbers are uncertain, are shown with a selection of clear calls. Calls come from the whole dose curve; as a rule, active = well fitted inhibition curve with a large enough effect; inconclusive = small, poorly fitted or top-dose-only effect, or effect the other way; inactive = flat fitted curve, though single readings scatter. Where the call is inconclusive, the potency comes from a doubtful curve fit.

Assay: Nrf2 qHTS screen for inhibitors; note: nearly all actives have a fitted effect of over 60% in size
Settings: A549 ARE-Fluc reporter, luciferase luminescence, 18-24 h; activity change, negative = inhibition: at 46 µM (top of the series)
Outline: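 In this cell-based qHTS, ARE-driven firefly luciferase in A549 cells reports Nrf2 activity; the luminescent signal after BugLite lysis is the measured value, with a prior CellTiter-Fluor read for cell health.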
% is set by controls: 0 for no effect and ±100 for the full control effect; potency is the fitted concentration of half-maximal effect.

Compound	Potency	activity change, negative = inhibition
Cc1cc(C)cc(NC(=O)Cn2c(-c3cncs3)nc3ccccc32)c1	inconclusive: 16.4 µM [falling, partial curve, poor fit]	
NC(=O)c1ccccc1N/C=C/C(=O)c1ccco1	inconclusive: 2.59 µM [activator, full curve]	
COc1ccccc1/C=C/C(=O)Nc1ccc(N2CCOCC2)cc1	active: 11.6 µM	
Cc1ccccc1N1CCN(S(=O)(=O)c2nnc(NC(=O)c3ccc(C(C)C)cc3)s2)CC1	inconclusive: 14.6 µM [activator, partial curve, poor fit]	
Clc1ccc(OCc2nc(-c3ccccn3)no2)c(Br)c1	inconclusive: 1.16 µM [activator, partial curve, poor fit]	
COC(=O)c1ccc(N=NNc2ccccc2)cc1	inconclusive: 2.59 µM [activator, full curve]	
CC(C)NC(=O)c1ccccc1NC(=O)Cc1ccc(Cl)cc1	inconclusive: 4.61 µM [falling, full curve, poor fit]	
O=C(c1ccc2c3c(cccc13)CC2)C1CCCN(C(=O)c2cccnc2)C1 (stereo not drawn)	inconclusive: 16.4 µM [falling, partial curve, poor fit]	
COc1ccccc1OCC(=O)NCc1cccs1	inconclusive: 23.1 µM [activator, single point]	
CCCCCn1c(NCc2ccc(OC)cc2)nc2ccccc21	inconclusive: 16.4 µM [falling, partial curve, poor fit]	
COc1cccc(NC(=O)CNC(=O)c2ccccc2)c1		inactive: 7.33%
COc1ccccc1OCC(=O)NNC(=O)CSC(=S)N1CCCC1		inactive: 10.1%
CCCCOc1ccc(-c2cn3ccccc3n2)cc1[N+](=O)[O-]	inconclusive: 4.11 µM [activator, full curve]	
COc1ccc(C(=O)NC2=NCCS2)cc1	inconclusive: 4.11 µM [activator, full curve]	
CC1CCc2c(sc(Nc3nc4c(F)cccc4s3)c2C(N)=O)C1 (stereo not drawn)		inactive: 1.04%
CCn1c(N2CCN(C(=S)NCC(C)C)CC2)nc2ccccc21	inconclusive: 9.2 µM [falling, partial curve]	
Cc1cc(Cl)ccc1NC(=S)NCc1ccco1		inactive: -11.6%
CC(=O)Nc1ccc(Sc2ncccc2C(=O)Nc2cc(Cl)cc(Cl)c2)cn1	inconclusive: 8.2 µM [falling, partial curve]	
CN(C)CCO/N=C(\c1ccc(Br)cc1)c1cccnc1	inconclusive: 29.1 µM [activator, single point]	
CSCCC(NC(=O)c1ccco1)C(=O)NCc1ccc(F)cc1 (stereo not drawn)	inconclusive: 2.06 µM [falling, partial curve, poor fit]	
Cc1ccc(SCc2ccc(C(=O)Nc3cc([N+](=O)[O-])ccc3C)cc2)cc1	active: 14.6 µM	
CCOc1ccccc1NC(=O)CSC1=NN2CCCC(=O)N=C2S1	inconclusive: 29.1 µM [falling, single point]	
Cc1cc(F)ccc1S(=O)(=O)NCC(c1cccnc1)N1CCc2ccccc21 (stereo not drawn)		inactive: -12.8%

Compound	Potency	activity change, negative = inhibition
Cc1cccc(-c2cc(=O)c(C(=O)O)cn2-c2ccc(F)cc2F)c1	inconclusive: 0.731 µM [activator, full curve, poor fit]	
O=[N+]([O-])c1ccc(O)c(C=Nc2ccc3c(c2)OCCO3)c1	inconclusive: 14.6 µM [activator, partial curve]	
Cc1nnc(-c2ccccc2)o1		inactive: -6.77%
O=C(NN=Cc1c(O)ccc2ccccc12)c1ccncc1	active: 25.9 µM	
CN(C)c1ccc(CNC(=O)c2ccc(Cn3c(SCc4ccccc4)nc4cccnc43)cc2)cc1		inactive: -13.6%
O=C(N/N=C/c1cccnc1)c1cccc(Br)c1		inactive: 16.3%
O=C(NCc1ccncc1)c1ccc2nc(Cc3ccccc3F)oc2c1	inconclusive: 29.1 µM [falling, single point]	
Cc1ccc(S(=O)(=O)Nc2cc3c4c(c2)CCN4C(=O)CC3)cc1	inconclusive: 0.058 µM [falling, full curve, poor fit]	
CN(C)C(=O)CSc1nnc(-c2cc(-c3cccs3)nc3ccccc23)o1	inconclusive: 29.1 µM [falling, single point]	
O=C(Nc1ccc(-c2csc(Nc3ccccc3)n2)cc1)c1cccc(C(F)(F)F)c1	active: 9.2 µM	
S=C(NCc1ccc(Cl)cc1)NC12CC3CC(CC(C3)C1)C2	inconclusive: 29.1 µM [falling, single point]	
Oc1[nH]c2ccc(Br)cc2c1N=NC(=S)N1CCOCC1	inconclusive: 25.9 µM [falling, single point]	
CCc1ccc(CNC(=O)c2cnc3sc(N4CCCC4)nn3c2=O)cc1	inconclusive: 6.51 µM [activator, full curve, poor fit]	
CCc1c(C2(O)CCCCC2)[nH]c2ccc(C(F)(F)F)cc12		inactive: 2.45%
COc1ccc([C@@H](C)NC(=O)c2ccc3oc(C(C)C)nc3c2)cc1	inconclusive: 6.51 µM [activator, single point]	
Cc1ccc(S(=O)(=O)Nc2cc(Cl)c(O)cc2C)cc1	inconclusive: 29.1 µM [falling, single point]	
CCOc1ccccc1N=C1SCC(C)N1C(=O)C1CCN(c2ncnc3sc(C)c(C)c23)CC1 (stereo not drawn)	inconclusive: 13 µM [falling, partial curve]	
COc1cccc(C(C)NC(=O)Nc2cccc(C(F)(F)F)c2)c1 (stereo not drawn)	inconclusive: 32.6 µM [falling, single point]	
CCOc1ccc(-c2nc(-c3ccccc3)no2)cc1OCC	inconclusive: 11.6 µM [activator, partial curve]	
N#Cc1nc(Nc2cccc(-c3ccccc3)c2)nc(NC2CCCC2)n1	inconclusive: 18.4 µM [falling, single point]	
COc1ccc(C2CC(c3cccc(Br)c3)=NN2c2ccc(S(N)(=O)=O)cc2)cc1 (stereo not drawn)	inconclusive: 20.6 µM [falling, single point]	
COc1ccc(OCCN2CCCC2)cc1Nc1nnc(Cl)c(Nc2ccccc2S(C)(=O)=O)n1	inconclusive: 23.1 µM [falling, partial curve, poor fit]	
F[B-](F)(F)c1cc2cc(Br)ccc2s1	inconclusive: 0.731 µM [activator, full curve, poor fit]	

Four of the compounds above, as labelled records:
CN(C)c1ccc(CNC(=O)c2ccc(Cn3c(SCc4ccccc4)nc4cccnc43)cc2)cc1
  activity change, negative = inhibition: inactive: -13.6%
Cc1ccc(S(=O)(=O)Nc2cc3c4c(c2)CCN4C(=O)CC3)cc1
  Potency: inconclusive: 0.058 µM [falling, full curve, poor fit]
CCc1ccc(CNC(=O)c2cnc3sc(N4CCCC4)nn3c2=O)cc1
  Potency: inconclusive: 6.51 µM [activator, full curve, poor fit]
COc1cccc(C(C)NC(=O)Nc2cccc(C(F)(F)F)c2)c1 (stereo not drawn)
  Potency: inconclusive: 32.6 µM [falling, single point]

(further entries)

Compound	Potency	activity change, negative = inhibition
COc1ccccc1C(O)(c1ccccc1)c1ccccc1OC	inconclusive: 18.4 µM [falling, partial curve, poor fit]	
CC1=NN(c2ccccc2)C(=O)/C1=C\C=C1/N(C)c2ccccc2C1(C)C	inconclusive: 18.4 µM [falling, single point]	
Cc1ncc(CO)c2c1Oc1nc(-c3ccccc3F)nc(SCC(=O)N(C)c3ccccc3)c1C2	inconclusive: 23.1 µM [falling, partial curve, poor fit]	
Nc1ncnc2nc(SCC(=O)Nc3ccccc3F)[nH]c12	inconclusive: 29.1 µM [activator, single point]	
CN(Cc1ccc(F)cc1)C(=O)c1cccc(S(=O)(=O)N2CCN(c3ccc(F)cc3)CC2)c1	active: 18.4 µM	
COc1cccc(-c2cc(C(F)(F)F)nc(-n3cncn3)n2)c1	inconclusive: 1.64 µM [falling, full curve, poor fit]	
CCN(CC)CCn1c2ccccc2c2n[nH]c(=S)nc21		inactive: 8.01%
Cc1ccc(-n2nc3c(=O)n(CC(=O)c4ccc(F)cc4)nc(C)c3c2C)cc1	inconclusive: 13 µM [falling, partial curve, poor fit]	
CCc1ccc(-n2c(=O)c3c4c(sc3n(CC(=O)c3ccc(F)cc3)c2=O)CCC4)cc1	inconclusive: 10.3 µM [falling, partial curve, poor fit]	
CCCCCCCCCCOC(=O)Cn1c(COc2ccccc2)[n+](C)c2ccccc21	inconclusive: 25.9 µM [falling, single point]	
CN(CCC#N)C(=O)CSc1ncnc2sc(-c3ccccc3)cc12	inconclusive: 18.4 µM [falling, partial curve]	
CN=Cc1sc2ccccc2c1O		inactive: -11%
COCCNC(=O)c1c[nH]c2ccc(S(=O)(=O)Nc3ccccc3F)cc2c1=O		inactive: -12.7%
COC(=O)c1c(-c2ccccc2)csc1NC(=O)c1c(-c2ccccc2)noc1C	inconclusive: 2.59 µM [activator, full curve]	
N#C/C(=C/c1ccccc1[N+](=O)[O-])c1nc(C2CC2)cs1	inconclusive: 16.4 µM [activator, partial curve, poor fit]	
Cc1ccc(-n2c(Cc3cccs3)nnc2SCC(=O)Nc2ccc(S(N)(=O)=O)cc2)cc1	inconclusive: 32.6 µM [falling, single point]	
CCc1cccc(NC(=O)COC(=O)c2cn(CC)c3nc(C)ccc3c2=O)c1		inactive: 17.7%
CC12C(=O)N(c3nccs3)C(=O)C1(C)C1CCC2O1 (stereo not drawn)	inconclusive: 0.0146 µM [falling, full curve]	
COc1ccc(Nc2ccc3c(c2)=NC2(CCCCC2)[N+]=3[O-])cc1	inconclusive: 18.4 µM [falling, partial curve, poor fit]	
CCOC(=O)C1(Cc2ccccc2)CCCN(C(=O)c2cnn(CC)c2)C1 (stereo not drawn)	inconclusive: 4.61 µM [activator, full curve]	
CSc1ccc(C#N)cc1NC(=O)c1ccccc1C	inconclusive: 5.8 µM [activator, partial curve]	
COc1ccc(CNC(=O)CSCc2nc(-c3ccccc3C)oc2C)cc1	inconclusive: 20.6 µM [falling, single point]	
